Experimental data reported in PubChem BioAssay AID1794845 (National Center for Advancing Translational Sciences (NCATS), 2023).
Among all 6,900 compounds or so, fewer than 10 were called active. Calls follow the shape of the dose curve; as a rule, active = well fitted curve in the direction sought with a large enough effect; inconclusive = small, poorly fitted or top-dose-only effect, or another doubt; inactive = no such curve, though single readings can be large or run the other way. Some of the results follow.

By UniProt entry, the sequences of proteins in these tests, tags left out. Where a name states a change or a piece, a line headed by the entry shows the natural chain unless it says otherwise.
UniProt C7C422: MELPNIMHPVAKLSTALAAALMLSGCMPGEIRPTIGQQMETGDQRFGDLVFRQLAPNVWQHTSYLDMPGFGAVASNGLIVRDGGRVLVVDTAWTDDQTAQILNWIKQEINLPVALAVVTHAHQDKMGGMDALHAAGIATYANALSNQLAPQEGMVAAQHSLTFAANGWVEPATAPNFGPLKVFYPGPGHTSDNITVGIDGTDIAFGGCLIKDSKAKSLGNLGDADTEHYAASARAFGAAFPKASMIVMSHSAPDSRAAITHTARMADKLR

molecular target: Metallo-beta-lactamase type 2 (Klebsiella pneumoniae) (UniProt C7C422); test: qHTS to identify inhibitors of the New Delhi Metallo-beta-lactamase (NDM): primary screen against the NCATS Gemini Collection; conditions: NDM-1 enzyme, meropenem hydrolysis, absorbance 300 nm; at 38.4 µM (top of the series) unless noted; also: % of control where 0% means no effect
Method in brief: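 Meropenem hydrolysis (50 uM final) by 2 nM NDM-1 read as 300 nm absorbance after 30 min, following >30 min compound–enzyme preincubation in HEPES pH 7.0 with 1 uM ZnSO4 and 0.01% Tween20.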

Activity % (negative = inhibition), inactive:
CCCCNC(=O)C1CCc2sc(C(=O)N3CCCCC3)cc2C1 (centres undefined) -4.39%
Cc1noc(C)c1[S+](=O)([O-])N1CCc2nc(-c3ccccc3)nc(-c3ccc(Cl)cc3)c2C1 6.08%
C=CCNC(=O)c1cnn2c1CN(C(=O)c1cccnc1)CC2 -0.594%
Cc1cccc(-c2nocc2CCC(=O)NCc2ccc(F)cc2F)c1 -1.01%
Cn1cc(C(=O)N2C[C@@H](C(=O)O)[C@H](c3cccc(F)c3)C2)c(=O)[nH]c1=O -1.87%
Cc1noc(-c2cccs2)c1C(=O)NCc1ccccc1Cl 9.87%
CC(=O)N1CCN2C(=O)N(Cc3ccc(F)cc3)C[C@H]2C1 2.72% [at 77.1 µM]
COc1ccc(CN(C)C(=O)C2(C)CCOCC2)cc1 6.58% [at 57.5 µM]
COc1ccc(C2Cn3nnc(-c4noc(C5CCC5)n4)c3CO2)cc1 (centres undefined) 2.55%
Cc1cc(C)n(Cc2ccc(C(=O)N3CCCC(CO)CCNC(=O)CC3)o2)n1 (centres undefined) 39.5%
CCN1CCN(CCCN2CC3(CCN(Cc4ncc[nH]4)CC3)OC2=O)CC1 1.16%
CCCCN1C(=O)NC(c2ccc(OC)cc2)C2=C1COC2=O (centres undefined) -0.903%
CC(=O)N1CCN(C(=O)c2ccc3nnc(CC4CC4)n3c2)CC1 6.81% [at 57.5 µM]
CS(=O)(=O)N(C1CC1)C1CCOC2(CCN(C(=O)NCc3ccccc3)CC2)C1 (centres undefined) -3.97%
COc1ccc(CNC(=O)C[C@@H]2O[C@H](Cn3cc(CN(C)Cc4ccccc4)nn3)[C@@H](O)[C@H]2O)cc1 2.12%
O=C(Cc1ccc(F)cc1)N1CCC2(COc3ccncc3[S+](=O)([O-])N2)C1 (centres undefined) 6.5%
CCCS(=O)(=O)N1CC(Oc2ccccc2-c2nc(C3CC3)no2)C1 31.4%
Cn1cc(CN2CCOC[C@H]2c2ncc(C(C)(C)C)[nH]2)c2ccccc21 16.1% [at 57.5 µM]
CCc1cc(N2CCOCC(O)(CN3CCCC3)C2)nc(N2CCCC2)n1 (centres undefined) -1.34%
CC(=O)N(C1CC1)C1CCOC2(CCN(C(=O)c3sc(C)nc3C)CC2)C1 (centres undefined) -0.752%
COc1ccccc1-c1ccc(C(=O)N2CCC(NC(=O)Nc3ccc(Cl)cc3)CC2)cc1 11.2%
COc1cc(OC)c(C(=O)N2CCC3(CC2)[C@H](O)C[C@@H]3OC)cc1OC 9.19%
CCC1(O)CCC12CCN(C(=O)C1CC1)CC2 (centres undefined) -0.104%
CC1=C[C@@H](CC#N)[C@H](C(C)C)C[C@H]1CC(=O)N(C)Cc1cccnc1 1.42% [at 57.5 µM]
Cc1cccc(-c2noc(CCC(=O)N3CCC(C)(c4noc(C)n4)CC3)n2)c1 9.05%
CCn1cc(CN2C[C@@H](CO)[C@H](NC(=O)COC)C2)c2ccccc21 1.47%
O=C(COc1ccccc1)N1CCC2(CC1)OCCN(CCc1ccccc1)C2=O -4.58% [at 57.5 µM]
C[C@]1(CO)[C@H]2Cc3sc(NC(=O)C4CCC4)nc3[C@@H](CC(=O)N3CCCCC3)[C@]2(C)CC[C@H]1O 12.8%
CN(CC[C@H]1CN(C(=O)C(C)(C)C)CC[C@H]1CC(=O)O)c1ccccc1 8.59% [at 57.5 µM]
Cn1cc([C@@H](NC(=O)c2ccc3c(c2)CCCC3)C2CC(O)C2)cn1 (some centres undefined) 7.25%
COc1ccccc1CNC(=O)[C@@H]1OCCN(C2CC2)[C@H]1c1ccccc1 0.117%
CCN1CCC(N2CC(Oc3cccc(C(=O)NCC4CC4)c3)C2)CC1 2.31%
COc1cc(-c2nccc3c(=O)cc(N4CCOCC4)oc23)ccn1 80.3% [at 57.5 µM]
Cc1oc(C(O)c2ccccc2)nc1C(=O)Nc1ccc(C(=O)Nc2ccccc2)cc1 (centres undefined) 2.77% [at 57.5 µM]
CC(=O)Nc1ccc(NC(=O)c2cccc(CN3CCCC(C#N)C3)c2)cc1 (centres undefined) 31.4%
CCCCS(=O)(=O)N[C@@H]1CN(Cc2ccncc2)C[C@H]1CN(C)C 0.381%
CCOCCOC1CCN(C(=O)c2cnccn2)CC1 -2.62%
COc1cccc(N2CCN(C(=O)CCC[C@@H]3[C@H]4CCCN5CCC[C@@H](CN3C)[C@@H]45)CC2)c1 0.833%
NC1CCCCN(C(=O)c2ccc3n[nH]nc3c2)C1 (centres undefined) 1.28%
COCC1CN(C)CC12CCN(C(=O)CC1=CCCCC1)CC2 (centres undefined) -3.71%
O=C(Cc1cccs1)N1CCN(c2cc(C(F)(F)F)ncn2)CC1 4.27%
COCCN1C(=O)c2cccn2CC1CNS(=O)(=O)c1c(C)noc1C (centres undefined) 17.6%
COc1ccc(C[C@H](NC(=O)[C@@]2(O)C[C@@H](O)[C@H](O)[C@@H](NS(=O)(=O)c3cccc(C(F)(F)F)c3)C2)C(N)=O)cc1 25.1%
COCC(=O)N1CC(C(=O)N2CCCCC2)[C@H](c2ccncc2)C1 (some centres undefined) 0.277%
COCCN1CC(CO)C2(CCN(C3CCN(C(C)=O)CC3)CC2)C1 (centres undefined) 10.7%
O=C(c1ccccc1)N1CCCC2(CC(c3ccccc3)=NO2)C1 (centres undefined) -13.7%
CN1CCC(Oc2ncccc2NC(=O)c2ccncc2)C1 (centres undefined) 12.3%
O=C(c1cnccn1)N1CCC(Oc2cccnc2)C1 (centres undefined) 0.376%
COc1ccc(-c2nc(-c3ccccc3)nc3c2CN([S+](=O)([O-])c2cccs2)CC3)cc1 1.57%
FC(F)(F)c1ccc(O[C@H]2COCCN(Cc3cccnc3)C2)nc1 0.0862% [at 57.5 µM]
Cc1cc(C[C@@H]2COC[C@@H]2NC(=O)CCc2nc(-c3ccco3)no2)on1 10.4%
CCCCc1ccc(-n2cc(CN3CCN(C(C)=O)CC(O)C3)cn2)cc1 (centres undefined) 19.4%
CC(C)N1CC[C@@H]2[C@H]1C(=O)NC[C@H](CCC(=O)NCc1ccc(F)cc1)N2C 28% [at 57.5 µM]
O=C(c1ccc2ncccc2c1)N1CC(n2ccnc2)C1 0.214%
COc1cccc(CN2CCC3(CC2)COc2ccccc2CN3)c1 0.573%
CC(C)CCNC(=O)N1c2ccccc2CC1c1noc(C2CCOCC2)n1 (centres undefined) 9.3%
Cn1c(Cn2cccn2)nnc1C1CC(Nc2ncnc3sccc23)C1 (centres undefined) 11.8%
COc1ncccc1C(=O)N1CCc2onc(-c3cccc4ccccc34)c2C1 5.17%
COc1ccccc1-c1ccc(C(=O)N2C[C@@H](N(C)C)[C@H](C(C)C)C2)cc1 2.37%
COCC(=O)N1CCC[C@@H]1C(=O)N1CCC(N2CCOC2=O)CC1 -3% [at 57.5 µM]
O=C(C1CC(=O)N(C2CC2)C1)N1CCC(Oc2ccccc2Cl)CC1 (centres undefined) -1.39%
CCC(=O)N1CCC(OC2CCN(C(=O)CC3CCCCC3)CC2)CC1 -1.04%
Cc1n[nH]c(C)c1CNC(=O)C1CCN(c2cn[nH]c(=O)c2)C1 (centres undefined) 10.8%
NCCc1noc(Cc2ccccc2)n1 12.1%
O=C(CCc1nc2ccccc2s1)N[C@@H]1CCOC[C@H]1OCCO 10.1%
CC1=C[C@@H](CNC2CCOCC2)[C@H](C(C)C)C[C@H]1Cc1nc2ccc(F)cc2[nH]1 -1.97% [at 57.5 µM]
Cc1nc(N2CCN(C(=O)C(C)Oc3ccccc3)CC2)cc(C(F)(F)F)n1 (centres undefined) 0.792%
O=C(NC[C@H]1OC[C@@H](NCc2ncc[nH]2)[C@@H]1O)c1cccs1 0.861% [at 57.5 µM]
Cc1noc2c(NC3CCN(C)CC3)cc(-c3cccs3)nc12 2.43% [at 57.5 µM]
Cn1c(=O)[nH]cc(CC(=O)NCc2cccnc2-n2ccnc2)c1=O 10.9%
Cc1ccccc1CN1CCn2c(nn(CC3COc4ccccc4O3)c2=O)C1=O (centres undefined) -8.83%
O=C1CC(c2nc(-c3cn4ccccc4n3)no2)CN1Cc1ccncc1 (centres undefined) 13.7%
Cc1cnc(-c2ccccc2)n1CC1CCN(S(=O)(=O)Cc2ccccc2F)CC1 -2.5%
Cn1nc(C(=O)NC2CC2)c2c1CN(C(=O)Cc1cccc(F)c1)C2 0.284%
CNc1nc2c(c(C(=O)N3CCCC3)n1)CN(CC1(O)CCNC1)CC2 (centres undefined) 18.1%
COCC1CN(C2CCC2)CC12CCN(C(=O)NCCc1ccccc1)CC2 (centres undefined) 1.49%
Cc1noc(C)c1C(=O)N1CCOc2ccc(CCC(=O)NCC3CC3)cc2C1 -0.838%
O=C(c1ccccn1)N1CCN(C(=O)N2CC3CC(C2)[C@H]2CCCC(=O)N2C3)CC1 (some centres undefined) -2.06%
O=C(Nc1ccc(F)cc1)c1ccn2cncc2c1 18.5% [at 57.5 µM]
CCCc1cc(C(=O)N[C@@H]2CCOC[C@H]2OCCO)n(C)n1 -0.104%
C=CCC1(CO)CCCN(Cc2nc(C)cc(-c3ccccc3)n2)C1 (centres undefined) 20.6%
CN(Cc1ccc2nccnc2c1)C(=O)c1cc(COc2ccc(F)cc2F)on1 3.52%
CN(C)c1ccc(C(=O)N[C@H]2C[C@@H](c3nc(-c4ccc5ccccc5c4)no3)N(C)C2)cc1 17.5%
O=C(NCc1ccco1)C1COC2(CCN(C(=O)c3ccc(F)cc3)CC2)N1C(=O)c1ccco1 (centres undefined) 10.9%

As a short view, 5 of the compounds above:
Activity % (negative = inhibition), inactive:
COc1ccc(C2Cn3nnc(-c4noc(C5CCC5)n4)c3CO2)cc1 (centres undefined) 2.55%
Cc1cc(C)n(Cc2ccc(C(=O)N3CCCC(CO)CCNC(=O)CC3)o2)n1 (centres undefined) 39.5%
CCN1CCN(CCCN2CC3(CCN(Cc4ncc[nH]4)CC3)OC2=O)CC1 1.16%
CCCCN1C(=O)NC(c2ccc(OC)cc2)C2=C1COC2=O (centres undefined) -0.903%
CC(=O)N1CCN(C(=O)c2ccc3nnc(CC4CC4)n3c2)CC1 6.81% [at 57.5 µM]
